# At least one structure is not confirmed: it was looked up by name or label, or the drawing left a doubt.
# Test system: trabecular bone density and uterus weight
# Assay type: in vivo, rat
# Conditions: adult ovariectomized rats, 56 days; compound 44 oral 1-10 mg/kg, effect already beginning with 1 mg/kg
# Experimental: 3-months-old female rats are ovariectomized and immediately after the operation they are treated with the test compound once daily for 56 days. Application is oral in peanut oil/ethanol. The animals are killed on the day after the last application and the tibia and the uteri are removed. The uteri are weighed, fixed and prepared for histological investigations. Bone density is determined ex vivo on prepared long bones by pQCT (peripheral quantitative computed tomography).
# Ovariectomy leads to a decrease in density of the trabecular bone in the measured region. By treatment with a compound of general formula I according to the present invention (dosages of 1-10 mg/kg/day) the decline in bone density is prevented or inhibited. Bone density was measured on the proximal tibia.
# The bone-protective action in adult ovariectomized female animals (rat) was investigated as described. […] The selected claimed pharmacological example compound 44 was applied orally at dosages from 1-10 mg/kg.
compound,measurement,value
"C[C@]12CC[C@@H]3c4ccc(O)cc4CC[C@H]3[C@@H]1CC[C@@H]2O [estradiol, reference compound]","bone-protective action (trabecular bone mass density, tibia)",no loss of bone mass
